Assay results: publication PMC10323247
These are yes or no findings as the source states them, for the method shown. Binding seen in cells or lysates may run through a third protein. Some entries that bind do so weakly or less than the wild type. Sequences can lack the tags named with a protein.

Target: T1, HAUS2 with C-terminal mGFP-TEV-TwinStrep tag (human) (UniProt Q9NVX0)
T1 sequence: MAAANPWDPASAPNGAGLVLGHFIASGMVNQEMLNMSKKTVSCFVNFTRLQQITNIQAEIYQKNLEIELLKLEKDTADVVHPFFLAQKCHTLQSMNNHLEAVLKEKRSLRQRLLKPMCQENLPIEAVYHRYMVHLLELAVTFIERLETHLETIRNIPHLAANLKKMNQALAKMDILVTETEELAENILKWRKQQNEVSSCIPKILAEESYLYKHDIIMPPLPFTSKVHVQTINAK
Experiment: pull-down + SEC; eight subunits co-expressed in High Five cells; captured by the TwinStrep tag of HAUS2 on StrepTrap HP (lysis buffer with 400 mM NaCl), eluted with desthiobiotin, then Superose 6 Increase SEC (250 mM NaCl); subunits in fractions E2-E3 seen by SDS-PAGE and western blotting

HAUS7 (from UniProt Q99871-1 1-358)
binding: binds
